This is an account of results in article PMC3603897.

By UniProt entry, the sequences of proteins in these tests, tags left out. Where a name states a change or a piece, a line headed by the entry shows the natural chain unless it says otherwise.
UniProt P42225: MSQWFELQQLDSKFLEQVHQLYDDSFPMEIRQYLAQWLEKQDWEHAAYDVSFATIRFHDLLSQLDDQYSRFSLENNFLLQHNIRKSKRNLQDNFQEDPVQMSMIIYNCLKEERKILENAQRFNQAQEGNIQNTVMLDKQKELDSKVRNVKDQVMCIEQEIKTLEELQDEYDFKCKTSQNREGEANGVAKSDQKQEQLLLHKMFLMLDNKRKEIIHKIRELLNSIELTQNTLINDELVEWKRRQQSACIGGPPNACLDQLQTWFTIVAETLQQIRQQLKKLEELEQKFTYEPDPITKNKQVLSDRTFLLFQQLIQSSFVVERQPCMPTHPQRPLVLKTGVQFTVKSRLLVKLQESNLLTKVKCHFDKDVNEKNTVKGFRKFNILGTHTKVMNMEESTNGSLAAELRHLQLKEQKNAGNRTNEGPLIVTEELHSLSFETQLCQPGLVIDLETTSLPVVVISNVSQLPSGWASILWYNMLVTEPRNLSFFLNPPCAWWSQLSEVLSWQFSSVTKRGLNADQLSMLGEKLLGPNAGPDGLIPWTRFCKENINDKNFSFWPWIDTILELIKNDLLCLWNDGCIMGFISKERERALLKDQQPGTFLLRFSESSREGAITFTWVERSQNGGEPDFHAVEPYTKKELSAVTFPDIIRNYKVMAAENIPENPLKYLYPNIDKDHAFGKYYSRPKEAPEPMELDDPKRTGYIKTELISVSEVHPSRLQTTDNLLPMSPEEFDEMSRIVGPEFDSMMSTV

The data set has as its target STAT1 (IFNγ-activated, GAF homodimer) (Mus musculus (BMDC)) (UniProt P42225). The experiment in a line: EMSA with supershift. Particulars: IFNγ 100 ng/ml, strong at 30 min, supershifted by anti-STAT1, not by normal IgG; EMSA: LightShift binding buffer, 200 fmol probe, 1 ug poly(I)-poly(C), 2.5% glycerol, 50 mM KCl, 1 mM DTT, 1 mM EDTA, 20 min; protein in an extract; label: 5' biotin on both strands.

Construct, isoform or probe ends are uncertain for at least one entry. At least one result comes from cells or an extract, where the contact may be indirect.

Regarding “CATTTCGGGGAAATCGATC (double strand) [Irf-1 promoter GAS probe]”, the binding result is recorded as “binds”.
